# Results deposited as PubChem BioAssay AID602196 (INSERM, 2012).
# Test: 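Modifiers of cisplatin sensitivity in A549 cells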
# System: human A549 lung cancer cells
# Reagents: siRNA pair against human genes
# Time to read-out: 48 h transfection before cisplatin; time from cisplatin to read-out not stated
# Conditions: cisplatin at a dose killing half of control-siRNA cells; exact dose and duration not given
# Detection: 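Cisplatin cell death as a shift from the 50% death seen with control siRNA; siRNAs toxic or growth-blocking alone scored 0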
# Direction: two-siRNA summed score (-2 to +2): higher = both siRNAs protect from cisplatin killing; -2 means both sensitise; mean protection from cisplatin (shift in death) and protection from cisplatin (shift in death), siRNA C and protection from cisplatin (shift in death), siRNA D: higher = protection from cisplatin killing
# Rule for the call: 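Each siRNA scores 0 if harmful alone by LDH or WST-1, otherwise +1 if it reduces and -1 if it increases cisplatin killing; a gene is active when both siRNAs agree (sum +2 or -2)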
# Calls: active = both siRNAs shift cisplatin killing the same way; inactive = no consistent shift, or siRNA harmful alone
# This is one part, drawn at random, of about 23,000 reagents. In the full data, 455 (2%) are marked active. 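Active includes both protection and sensitisation; some change values fall well beyond the stated -50 to +50 range.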 A number with no mark means an inactive call. The record does not give: the amount of reagent.
gene,two-siRNA summed score (-2 to +2),mean protection from cisplatin (shift in death) (%),"protection from cisplatin (shift in death), siRNA C (%)","protection from cisplatin (shift in death), siRNA D (%)"
HSPA5,0,5.7,29,-17.6
PHLDB1,-1,1.3,11.6,-9
SCRN2,1,11.8,20.6,3
DUSP9,0,-3.3,-2.4,-4.3
LOC401944,0,18,18.2,17.7
HCRT,0,-12.8,-13.8,-11.8
POLR2DP1,1,25.4,22.4,28.4
LOC440466,0,17.3,7,27.6
BMS1P20,0,8.6,3,14.1
ITGAV,-1,-0.7,21.1,-22.6
PRSS2,0,3.9,-7.5,15.2
OR8D2,-1,-5.8,-5.3,-6.4
ZNF382,0,-1.6,-2.8,-0.3
FLJ43859,0,10.5,14.3,6.6
LOC442780,0,9.5,9.9,9.2
IFT43,-1,-11.2,-25,2.5
MDFIC,0,1.3,-1.9,4.5
ZFP41,0,8.6,3.2,14
ARMCX3,0,2.4,1.3,3.5
LOC440176,0,13.4,13.8,12.9
LOC389039,0,22.2,15.1,29.3
LEP,0,2.5,3.2,1.9
SDHAF2,0,-2.5,-3.7,-1.2
LRP11,0,-0.9,-7,5.1
DIAPH2,0,-9.4,-12.7,-6.1
PILRA,0,10,12.8,7.1

Continued; the last 2 above are carried over.
gene,two-siRNA summed score (-2 to +2),mean protection from cisplatin (shift in death) (%),"protection from cisplatin (shift in death), siRNA C (%)","protection from cisplatin (shift in death), siRNA D (%)"
DIAPH2,0,-9.4,-12.7,-6.1
PILRA,0,10,12.8,7.1
LINC01446,0,3.4,5.9,1
DNAJC27,0,10.3,17.9,2.6
TTC29,1,5,15.7,-5.6
PRKRA,0,3.8,6.3,1.3
LOC339942,1,6,-2.5,14.5
LOC442016,1,19.8,23.6,15.9
SNTB2,0,16.5,21.6,11.4
LOC440572,0,-0.8,2.5,-4
LOC441830,0,4.9,12.1,-2.3
FAM151B,0,-6,-0.7,-11.4
CTNNA3,0,-0.7,-9.4,8.1
PNPT1,0,5.8,4.3,7.2
MFGE8,0,13.7,15.8,11.6
LOC441732,0,20.3,8.4,32.2
MOV10L1,0,-0.3,-5.1,4.5
FAF2,0,6.6,14.2,-1
CHAMP1,0,10.8,13,8.6
ZNF234,0,7.4,8.9,5.9
CSF3R,-2 (active),-16.1,-14.5,-17.8
TAS2R8,0,-0.8,-8.5,7
TBC1D10C,1,10.4,11.4,9.4
ADORA2B,2 (active),21.6,28.7,14.5
LINC00242,1,17.6,20.5,14.6
LOC402694,0,2.1,12.4,-8.3
VSIG1,1,14.5,18.4,10.5
RPS4X,0,22.5,35.3,9.7
PAXBP1,0,5.1,3.9,6.2
SPPL2B,0,-1.5,5.4,-8.4
VPS4B,0,7.2,5.3,9.1
PIGX,0,9.9,9.6,10.2
OR14J1,0,7.3,8.9,5.7
LOC441864,0,19.6,7.3,31.9
SRGN,0,22.3,-0.4,44.9
LOC344875,0,12.2,8.6,15.7
BMP7,-1,-24.4,-16.9,-31.9
DERL3,0,6.9,8.6,5.1
FAT1,0,0.2,-3.3,3.7
LOC401149,0,-2,4.3,-8.3
PICK1,1,14,25.6,2.4
SLC16A1,0,7.7,6.3,9
SIRT4,-1,2.1,-27.1,31.3
C8orf34,1,8.8,12.8,4.9
FOXA3,1,9.3,11.2,7.4
LOC440417,1,15,24.9,5.1
LOC389655,1,3.8,10.4,-2.8
ZNF280C,0,2.8,-1.6,7.3
TRIML2,0,13.8,41,-13.3
